# Experimental data taken from publication doi:10.1101/2024.01.31.578135.
# Results are given in words; binding and its absence hold for the method and conditions named. In cells and extracts the contact can be indirect. These calls come from enrichment with a bait or labelling near it, and not all partners need be listed.
# Target: C-terminally myc-tagged TbPam27 (Trypanosoma brucei) (UniProt Q388L6)
# Experiment: affinity purification with mass spectrometry
substance,measurement,value
Tb927.8.3450 (from UniProt Q57YW8),binding,binds
Tb927.8.7010 (from UniProt Q57YQ8),binding,binds
Tb927.11.1010 (from UniProt Q387E9),binding,binds
Tb927.11.16750 (from UniProt Q381B1),binding,binds
TbTim15 (Tb927.2.4445) (from UniProt Q586P9),binding,binds
TbTim20 (Tb927.11.1620) (from UniProt Q386Z2),binding,binds
